From paper PMC8668097
No constants are given. Whether binding was seen depends on the method and setting. Binding seen in cells or lysates may run through a third protein. Binding can be weak; no strength is given. Where a sequence is shown, tags or fusion partners need not be part of it.

Tests used:
[1] = target: T1, Arabidopsis cpSRP54-cYFP (Arabidopsis) (UniProt P37107); test: split reporter; BiFC: full-length coding regions fused to nYFP or cYFP, agroinfiltrated into N. benthamiana, confocal imaging at 2 dpi; cpSRP54 with AOC.1 also in TuMV-infected plants
T1 sequence: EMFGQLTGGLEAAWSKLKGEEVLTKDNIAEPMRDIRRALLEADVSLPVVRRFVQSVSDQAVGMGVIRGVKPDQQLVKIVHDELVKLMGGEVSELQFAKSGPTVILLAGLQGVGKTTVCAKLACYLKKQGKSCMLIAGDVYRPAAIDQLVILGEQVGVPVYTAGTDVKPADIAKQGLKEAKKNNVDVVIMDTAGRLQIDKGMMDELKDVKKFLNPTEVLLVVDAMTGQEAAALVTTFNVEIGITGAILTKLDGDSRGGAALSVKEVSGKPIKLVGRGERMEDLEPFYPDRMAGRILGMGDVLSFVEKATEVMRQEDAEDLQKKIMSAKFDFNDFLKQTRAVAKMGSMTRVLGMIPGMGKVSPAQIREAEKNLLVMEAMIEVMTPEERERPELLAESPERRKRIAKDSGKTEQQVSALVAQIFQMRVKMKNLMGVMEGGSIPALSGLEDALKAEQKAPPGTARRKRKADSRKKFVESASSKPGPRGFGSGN

rice cpSRP54-cYFP (rice) = test: as above

In the case of Arabidopsis AOC-nYFP (enzyme), the binding [1] is reported as “binds”.

B1: rice AOC-nYFP (enzyme, UniProt Q75KD7 50-240)
chain: ASLFSPKPATPKDARPAKVQEMFVYEINERDRESPAYLRLSAKQTENALGDLVPFTNKLYSGSLDKRLGISAGICILIQHVPERNGDRYEAIYSFYFGDYGHISVQGPYLTYEESYLAVTGGSGVFEGAYGQVKLNQIVFPFKIFYTFYLKGIPDLPRELLCTPVPPSPTVEPTPAAKATEPHACLNNFTN
For B1, the binding (rice cpSRP54-cYFP (rice)) was “binds”.
